Reference: US6716635B2, “Method for identifying regulators of protein-advanced glycation end product (protein-AGE) formation” (University of Kentucky Research Foundation, priority 2000, dated 2004)
At least one structure is not confirmed: it was looked up by name or label, or the drawing left a doubt.

Assays:
[1] = system: histone H1 (cross linking by ADP-ribose); experiment: glycation induced cross linking of histone H1, 12% SDS-PAGE, silver staining; type: biochemical, calf; details: aliquots of 5 day incubation mixtures
Protocol: This example describes a secondary screening, to further evaluate compounds which were deemed positive following the assays of examples 1 and 2. Specifically, it will be recalled that each sample was tested in two wells, one of which was tested in example 2, supra. The sample not used was analyzed, via 12% SDS-PAGE, followed by silver staining, in order to visualize protein cross-linking. This serves as an independent measure of glycation caused protein damage. […] To test this, reaction aliquots of the 5 day incubation mixtures, described in Example 1, supra, were assessed on 12% SDS-PAGE. Both untreated histone H1, and the aminoguanidine containing positive control were tested in the same way. All were visualized by silver staining.

[2] = system: histone H1 (glycation by ADP-ribose); experiment: AGE-fluorescence screening of glycation inhibitors, histone H1 + ADP-ribose, 96 well microtiter plates; type: biochemical, calf; details: compound 200 μM
Protocol: A 96-well, microtiter plate was used to carry out 48 reactions in duplicate. […] A second pair of wells contains the reactants and the known glycation inhibitor aminoguanidine, and functions as a positive control. Histone H1 is commercially available, and can be prepared following the procedures set out in Johns, et al., Biochem J. 92:55-59(1964), which is incorporated by reference herein.
The reaction system is 50 mM potassium phosphate buffer, at pH 7.4 to which 1.5 mg/ml histone H1 and 1.0 mM ADP-ribose were added. Reaction volume was 300 ul. AGE-fluorescence was measured over time, with incubation at 37° C., at 355 nm (ex) and 405 nm (em). Upon comparison to the control, a test compound was deemed potentially positive if AGE-fluorescence was suppressed.
The histone H1 (1.5 mg/ml) was combined with 1 mM ADP-ribose, in […] KH2PO4 buffer (pH 7.4, 37° C., 0.015% NaN3 added, to inhibit microbial growth). This reaction mixture was added, to 96 well microtiter plates. Test compounds were added to the reaction mixture, at concentrations ranging from 1 to 10 mM, in reaction volumes of 300 ul. Texts were run in duplicate.
Accumulated protein damage was determined by measuring AGE-fluorescence, at wavelengths (λex=370 nm; λ em=440 nm. The fluorescence is suppressed in the presence of compounds with inhibitory activity. Assays were read on a conventional microtiter plate, with a filter setting that approached the above conditions (λ ex: 355 nm, λ […]: 405 nm), which is in the range of the broad excitation/emission maxima of AGE compounds.
The fluorescence was measured at the beginning, and after 5 days of incubation.
The known glycation inhibitor aminoguanidine was used as a control.

C[C@@H]1O[C@@H](OC[C@H]2O[C@@H](Oc3c(-c4ccc(O)c(O)c4)oc4cc(O)cc(O)c4c3=O)[C@H](O)[C@@H](O)[C@@H]2O)[C@H](O)[C@H](O)[C@H]1O [Rutin]
inhibition of histone H1 cross linking [1]: did not inhibit histone H1 cross linking
AGE-fluorescence (day 5) ([2]; 5 days incubation): 3.0 (0.1)
% inhibition ([2]; AGE-fluorescence day 5): 90%
AGE-fluorescence (day 0) ([2]; value (spread)): 1.1 (0.0)
